Structures are written as SMILES. Structures can show the parent of a compound that is named as a salt. ± gives the standard deviation of the averaged measurements. This is one part of the list. Values are raw readings; no control value is given beside them.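 A single yeast strain with four plasmids, each encoding a fluorescent protein and an amino-acid or uracil biosynthesis gene, seeds the community. Stochastic plasmid loss yields mixed prototroph and auxotroph subpopulations. Fixed cells were counted via automated confocal fluorescence imaging; DMSO-treated wells were the vehicle reference.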 Numbered stars: 1 amine (or outer) side, 2 acyl side, 3 side chain; on linkers, the order of the positions; unused ones are H or OH. Bridge positions count the residues as written; N and C are the ends. Square brackets hold non-standard residues; d marks the D form. Peptide text beside a SMILES is read from it. * marks the point of attachment. pTerphenylCO(4''-OnC5H11) = CCCCCOc1ccc(-c2ccc(-c3ccc(C(=O)*)cc3)cc2)cc1; Orn(4R-OH,5R-OH) = O=C([C@H](C[C@@H](O)[C@@H](O)N[*:3])N[*:1])[*:2]; hTyr(3S-OH,4S-OH) = N[C@H](C(=O)O)[C@H](O)[C@@H](O)c1ccc(O)cc1; Pro(3S-OH,4S-Me) = C[C@H]1CN[C@H](C(=O)O)[C@H]1O; Hyp = O=C(O)[C@@H]1C[C@@H](O)CN1

Experimental findings from the supplement of paper PMC8975748 are described below.

The test system of this assay is Saccharomyces cerevisiae BY4741 SeMeCo community. Kind of assay: imaged cell count per well (cells); higher = more cells. The conditions noted are these: 10 µM; 24 h; SM minimal medium. How it is done:
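Same SeMeCo high-content imaging drug screen: Selleck FDA-approved drugs at 10 µM, 24 h in SM medium, 384-well plates, 3 replicates.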
Take `C[C@@H]1C/C=C/C=C/C=C/C=C/[C@H](O[C@@H]2O[C@H](C)[C@@H](O)[C@H](N)[C@@H]2O)C[C@@H]2O[C@](O)(C[C@@H](O)C[C@H]3O[C@@H]3/C=C/C(=O)O1)C[C@H](O)[C@H]2C(=O)O` [Natamycin]: the “imaged cell count per well” value amounted to 2130 ± 540.

On to `C=C[C@]1(C)C[C@@H](OC(=O)CSC(C)(C)CNC(=O)[C@H](N)C(C)C)[C@]2(C)[C@H](C)CC[C@]3(CCC(=O)[C@H]32)[C@@H](C)[C@@H]1O` [Valnemulin HCl], for which the “imaged cell count per well” value came to 25700 ± 5700.

For `CC[N+](CC)(CC)CC` [Tetraethylammonium bromide], the “imaged cell count per well” value was found to be 19600 ± 1900.

`CCCCCOc1ccc(-c2ccc(-c3ccc(C(=O)N[C@H]4C[C@@H](O)[C@@H](O)NC(=O)[C@@H]5[C@@H](O)[C@@H](C)CN5C(=O)[C@H]([C@@H](C)O)NC(=O)[C@H]([C@H](O)[C@@H](O)c5ccc(O)cc5)NC(=O)[C@@H]5C[C@@H](O)CN5C(=O)[C@H]([C@@H](C)O)NC4=O)cc3)cc2)cc1` ({pTerphenylCO(4''-OnC5H11)}-[Orn(4R-OH,5R-OH)]T[Hyp][hTyr(3S-OH,4S-OH)]T[Pro(3S-OH,4S-Me)]; lactam 1-C): the “imaged cell count per well” value is 2340 ± 1000.

Turning to `CC1(C)CC[C@]2(C(=O)O)CC[C@]3(C)C(=CC[C@@H]4[C@@]5(C)CC[C@H](O)C(C)(C)[C@@H]5CC[C@]43C)[C@@H]2C1` [Oleanolic Acid], the “imaged cell count per well” value was found to be 24500 ± 4300.

In the case of `CC(C)c1nc(N(C)S(C)(=O)=O)nc(-c2ccc(F)cc2)c1/C=C/[C@@H](O)C[C@@H](O)CC(=O)O` [Rosuvastatin Calcium], the “imaged cell count per well” value was determined as 9710 ± 1000.

As for `C=CC1=C(C(=O)O)N2C(=O)[C@@H](NC(=O)/C(=N\O)c3csc(N)n3)[C@H]2SC1` [Cefdinir], the “imaged cell count per well” value was determined as 19700 ± 6300.

With `CCS(=O)(=O)CCn1c([N+](=O)[O-])cnc1C` [Tinidazole], the “imaged cell count per well” value came to 27300 ± 1700.

As for `CCN1CCN(C(=O)N[C@@H](C(=O)N[C@@H]2C(=O)N3[C@@H]2SC(C)(C)[C@@H]3C(=O)O)c2ccccc2)C(=O)C1=O` [Piperacillin Sodium], the “imaged cell count per well” value came out at 22200 ± 4600.

Consider `O=C(O)Cc1ccccc1Nc1c(Cl)cccc1Cl` [Diclofenac acid], for which the “imaged cell count per well” value came to 23200 ± 1500.

For the compound `COc1ccc2cc([C@H](C)C(=O)O)ccc2c1` [Naproxen], the “imaged cell count per well” value worked out at 14800 ± 4000.

Take `OC(Cn1cncn1)(Cn1cncn1)c1ccc(F)cc1F` [Fluconazole]: the “imaged cell count per well” value amounted to 25700 ± 3000.

For `CC(C)NC(=N)NC(=N)Nc1ccc(Cl)cc1` [Proguanil], the “imaged cell count per well” value amounted to 24400 ± 3000.

For the compound `NC(=O)c1cnccn1` [Pyrazinamide], the “imaged cell count per well” value is 20200 ± 8400.

Consider `COC(=O)Nc1nc2cc(C(=O)c3ccc(F)cc3)ccc2[nH]1` [Flubendazole], for which the “imaged cell count per well” value was 26500 ± 610.

Turning to `CC1=C[C@H]2C(=O)O[C@H]3C[C@@H](C/C=C(\C)C[C@@H](C)/C=C/C=C4\CO[C@H](/C1=N\O)[C@@]42O)O[C@@]1(CC[C@H](C)[C@@H](C)O1)C3.CC[C@H]1O[C@]2(CC[C@@H]1C)C[C@@H]1C[C@@H](C/C=C(\C)C[C@@H](C)/C=C/C=C3\CO[C@@H]4/C(=N\O)C(C)=C[C@@H](C(=O)O1)[C@]34O)O2` [Milbemycin Oxime], the “imaged cell count per well” value was determined as 25500 ± 7100.

For the compound `O=C(O)CCC(=O)c1ccc(-c2ccccc2)cc1` [Fenbufen], the “imaged cell count per well” value worked out at 18700 ± 4600.

As for `CN1C[C@@H]2C[C@H]1CN2c1cc2c(cc1F)c(=O)c(C(=O)O)cn2C1CC1` [Danofloxacin Mesylate], the “imaged cell count per well” value came to 23900 ± 3400.

As for `CNCCC(Oc1ccc(C(F)(F)F)cc1)c1ccccc1` (stereo not drawn) [Fluoxetine HCl], the “imaged cell count per well” value came to 19300 ± 3000.

On to `CC(Cc1ccc(O)c(O)c1)C(C)Cc1ccc(O)c(O)c1` (stereo not drawn) [Nordihydroguaiaretic acid (NDGA)], for which the “imaged cell count per well” value came out at 23700 ± 3400.

With `Clc1ccc(C(Cn2ccnc2)OCc2c(Cl)cccc2Cl)c(Cl)c1` (stereo not drawn) [Isoconazole nitrate], the “imaged cell count per well” value worked out at 3100 ± 460.

Consider `COc1cnc(NS(=O)(=O)c2ccc(N)cc2)nc1` [Sulfameter], for which the “imaged cell count per well” value stood at 18800 ± 4600.

Take `CCc1c(C)[nH]c2c1C(=O)C(CN1CCOCC1)CC2` (stereo not drawn) [Molindone hydrochloride]: the “imaged cell count per well” value is 27100 ± 6200.

In the case of `CCOC(=O)c1ccc(O)cc1` [Ethylparaben], the “imaged cell count per well” value amounted to 17700 ± 9300.

Regarding `CCCCCCCCN=C(N)NC(N)=NCc1ccc(Cl)c(Cl)c1` [Olanexidine Hydrochloride semihydrate], the “imaged cell count per well” value stood at 1460 ± 290.

Regarding `CC(C)C(=O)c1c(C(C)C)nn2ccccc12` [Ibudilast], the “imaged cell count per well” value turned out to be 22800 ± 6700.

With `C[N+]1(C)CCC(OC(=O)C(O)(c2ccccc2)C2CCCC2)C1` (stereo not drawn) [Glycopyrrolate], the “imaged cell count per well” value came to 25600 ± 4000.

Regarding `COc1ccc(C2CNC(=O)C2)cc1OC1CCCC1` (stereo not drawn) [Rolipram], the “imaged cell count per well” value came out at 25800 ± 3600.

As for `COc1ccnc(C[S+]([O-])c2nc3cc(OC(F)F)ccc3[nH]2)c1OC` (stereo not drawn) [Pantoprazole sodium], the “imaged cell count per well” value came out at 21100 ± 11000.

On to `CCC(=O)NS(=O)(=O)c1ccc(-c2c(-c3ccccc3)noc2C)cc1` [Parecoxib Sodium], for which the “imaged cell count per well” value was 19000 ± 9300.

`CO/N=C(\C(=O)N[C@@H]1C(=O)N2C(C(=O)OCOC(=O)C(C)(C)C)=C(/C=C\c3scnc3C)CS[C@H]12)c1csc(N)n1` [Cefditoren Pivoxil]: the “imaged cell count per well” value stood at 26800 ± 4500.

Turning to `CC[C@@H]([C@H](C)O)n1ncn(-c2ccc(N3CCN(c4ccc(OC[C@@H]5CO[C@@](Cn6cncn6)(c6ccc(F)cc6F)C5)cc4)CC3)cc2)c1=O` [Posaconazole], the “imaged cell count per well” value worked out at 5800 ± 1500.

Regarding `Cc1ncc([N+](=O)[O-])n1C` [Dimetridazole], the “imaged cell count per well” value is 20100 ± 2200.

Consider `COc1c(N2C[C@@H]3CCCN[C@@H]3C2)c(F)cc2c(=O)c(C(=O)O)cn(C3CC3)c12` [Moxifloxacin HCl], for which the “imaged cell count per well” value came to 23200 ± 7700.

As for `CCC(=O)c1c(O)cc(O)cc1O` [Flopropione], the “imaged cell count per well” value was found to be 19900 ± 9400.

`CN1C2CCC1CC(OC(=O)C(O)c1ccccc1)C2` (stereo not drawn) [Homatropine Bromide]: the “imaged cell count per well” value was 26200 ± 2200.

As for `CN1CCC(=C2c3ccccc3C=Cc3ccccc32)CC1` [Cyproheptadine hydrochloride], the “imaged cell count per well” value stood at 20500 ± 1700.

As for `CC(C)c1c(C(=O)Nc2ccccc2)c(-c2ccccc2)c(-c2ccc(F)cc2)n1CC[C@@H](O)C[C@@H](O)CC(=O)O` [Atorvastatin Calcium], the “imaged cell count per well” value was found to be 11100 ± 2400.
